No constants are given. Whether binding was seen depends on the method and setting. Some binding calls cover weakened binding; strength is not graded here.
Target: his-tagged TSLPR (TSLPR-HIS) (UniProt Q9HC73)
Experiment: BLI (ForteBio AHQ sensor)

Protein sequences, listed by entry. Tags and fused reporters are not part of them. Residues count along the entry.
UniProt Q9HC73, residues 23-231: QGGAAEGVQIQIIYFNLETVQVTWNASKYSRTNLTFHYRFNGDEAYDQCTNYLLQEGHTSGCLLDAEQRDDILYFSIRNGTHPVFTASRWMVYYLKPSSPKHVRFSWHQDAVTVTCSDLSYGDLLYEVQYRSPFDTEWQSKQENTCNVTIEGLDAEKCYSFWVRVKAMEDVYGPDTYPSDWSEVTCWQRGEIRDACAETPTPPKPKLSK

Binder | binding
TSLPR antibody clone 1B9 (antibody, V domains shown) VH: QVQLQESGPGLVKPSGTLSLTCAVSGGSIRSSNWWSWVRQPPGKGLEWIGEIYHGGTTNNNPSLKSRVTISVDQSKSQFSLKLSSVTAADTAVYYCARHRYSSGLDYWGQGTLVTVSS VL: DIQMTQTPSTLSASVGDRVTITCRGSHSISNWLGWYRHKPRKAPNLLIYKASSLKSGVPSRFSGSGSGTEFTLTITSLQPDDFATYYCQQYNHYSTFGQGTKVDIKR | binds
TSLPR antibody clone 1G3 (antibody, V domains shown) VH: QVQLVESGGGVVQPGRSLRLSCAASGFTFSSYGMHWVRQTPGKGLEWVAVMWYDGRNKYYADSVKGRFTISRDNSKNTLYLQMNSLRAEDTAVYYCARDRIMVRGVIIPHVFDIWGQGTMVTVSS VL: EIVMTQSPATLSVSPGERATLSCRASQSVSSNLGWYQQKPGQAPRLLIYGASTRATGIPARFSGSGSGTEFILTISSLQSEDFAVYYCQEYNNWWTFGQGTKVDIKR | binds
TSLPR antibody clone 3D8 (antibody, V domains shown) VH: QVQLVESGGGVVQPGRSLRLSCAASGFTFSSYVMHWVRQAPGKGLEWVAVIWYAGNKKYYADSVKGRFTISRDNSNNTLYLQMNSLRAEDTAVYYCAREYSSSWHYYGMDVWGQGTTVTVSS VL: DIQLTQSPSFLSASVGDRVTITCRASQGISSYLAWYQQKPGKAPKLLIYAASTLQSGVPSRFSGSGSGTEFTLTISSLQPEDFATYYCQQLNSYPLTFGGGTKVDIKR | binds
TSLPR antibody clone 10C4 (antibody, V domains shown) VH: QVQLQESGPGLVKPSGTLSLTCAVSGGSINSNNWWSWVRQPPGKGLEWIGDIYHSGSTNYNPSLKSRVTISVDKSKSQFSLKLSSVTAADTAVYYCARRRWLQHFDFWGQGTLVTVSS VL: DIQMTQSPSTLSASVGDRVTITCRASQSITNWLAWYQQKPGKAPKLLIYKASSLESGVPSRFSGSGSGTEFTLAISSLQPDDFATYYCQQYNIYPLAFGGGTKVEIKR | binds
TSLPR antibody clone 2A4 (antibody, V domains shown) VH: QVQLVQSGAEVKKPGASVKVSCKASGYTFTGYYMHWVRQAPGQGLEWMGRFNLHSGVTNYAQKFQGRVTMTRDTSISTVYMDLSRLRSDDTAVYYCARERQWLVQDYFDYWGQGTLVTVSS VL: DIQMTQSPSSLSASVGDRVTITCRASQSISNYLNWYQQKPGKAPNLLICAASSLQSGVPSRFSGSGSGTDFTLTISSLQPEDFATYYCQQSYSIPPTFGQGTKVDIKR | binds
TSLPR antibody clone 2D11 (antibody, V domains shown) VH: QVQLQESGPGLVKPSETLSLTCAVSGYSISSGYYWGWIRQPPGKGLEWIGRIYHSGTTSYNPSLKRRVTISVDTSKNQFSLKLSSVTATDTAVYYCARNWGGNWFDPWGQGTLVTVSS VL: DIQMTQSPSSLSASVGDRVTITCRASQGISNYLAWYQQKPGKVPKLLIYAASTLQSGVPSRFSGSGSGTDFTLTISSLQPEDVATYYCQKYNSARTFGQGTKVDIKR | binds
TSLPR antibody clone 2E6 (antibody, V domains shown) VH: EVQLLESGGNLVQPGGSLRLSCAASGFTFGSYVMTWGRQAPGKGLEWVSTISASGGSTYYADSVKGRFTISRDNSKNTLYLQMNSLRAEDTAVYYCAKDKWGKGFDIWGQGTMVTVSS VL: DIQLTQSPSFLSASVGDRVTITCRASQGISSYLAWYQQKPGKAPKLLIYAASTLQSGVPSRFSGSGSGTEFTLTISSLQPEDFATYYCQQLNSYPPTFGGGTKVEIKR | binds
TSLPR antibody clone 2F1 (antibody, V domains shown) VH: QVQLQESGPGLVKPSETLSLTCTVSGGSISRYYWSWIRQPPGKGLEWIGYIFYNKNTNYNPSLKSRVTISVDTSKNQFSLKLSSVTAADTAVYYCARYIAAIYTDLYYFDYWGQGTLVTVSS VL: DIQLTQSPSFLSASVGDRVTITCRASQGISSYLAWYQQKPGKAPKLLIYAASTLQSGVPSRFSGSGSGTEFTLTISSLQPEDFATYHCQQLNSYPLTFGGMTKVEIKR | binds
TSLPR antibody clone 2F5 (antibody, V domains shown) VH: EVQLVESGGGLVQSGGSLRFSCAASGFTFSSHPMNWVRQVPGKGLEWVSSISGSGGSTYYADFVKGRFTISRDNSKNTLYLQMNSLRAEDTAVYYCAKGHNSGWKYWGQGTLVTVSS VL: DIQLTQSPSFLSASVGDRVTITCRASQGISSYLAWYQQKPGKAPKLLIYAASTLQSGVPSRFSGSGSGTEFTLTISSLQPEDFATYYCQQLNSYPPTFGQGTKVDIKR | binds
TSLPR antibody clone 2H1 (antibody, V domains shown) VH: EVQLLESGGGLVQPGGSLSLSCAASGFTFSRYGMHWVRQAPGKGLEWVSAISASGGSTYYADSVKGRFTISRDNSKNTLYLQMNSLRAEDTAVYYCAKDKWGYAFDIWGQGTTVTVSS VL: DIQMTQSPSTLSASVGDRVTITCRASQSISNWLAWYQQKPGKAPKLLIYKASSLESGVPSRFSGSGSGTEFTLTISSLQPDDFATYYCLQYNHYSTFGQGTKVDIKR | binds
TSLPR antibody clone 2E4 (antibody, V domains shown) VH: EVQLLESGGGLVQPGGSLRLSCAASGFTFSSYAMNWVRQAPGKGLEWVSGISGSGGSTYYADSVKGRFTFSRDNSKNTLYLQMISLRAEDTAVYYCAKDQRITMVRGVIGAFDIWGQGTMVTVSS VL: DIQMTQSPSTLSASVGDRVTITCRASQSISSWLAWYQQKPGKAPKLLIYKASSLESGVPSRFSGSGSGTEFTLTISSLQPDDFATYYCQQYVGLITFGQGTRLEIKR | binds
TSLPR antibody clone 3E5 (antibody, V domains shown) VH: EVQLLESGGGLVQPGGSLRLSCAASGFTFSSNAMSWVRQAPGKGLEWVSAIRGRGGSTYYADSVKGRFTISRDNSKNTLYLQLNSLRAEDTAVYYCAKDRIVVAGPFDHWGQGTLVTVSS VL: DIQLTQSPSFLSASVGDRVTITCRASQGISSYLAWYQQKPGKAPKLLIYAASTLQSGVPSRFSGSGSGTEFTLTISSLQPEDFATYYCQQLNRYPLTFGGGTKVDIKR | binds
